Measurements: PMC9905200
Like-named read-outs stand apart in the source and are kept apart here. These are yes or no findings as the source states them, for the method shown. Binding seen in cells or lysates may run through a third protein. These calls come from enrichment with a bait or labelling near it, and not all partners need be listed. Each block holds one molecule with its values, some of them ahead of it.

Protein sequences, listed by entry. Tags and fused reporters are not part of them. Lines headed by an entry give the natural chain unless they say otherwise; changes in a name come on top. Residues count along the entry.
UniProt P02649, residues 19-317: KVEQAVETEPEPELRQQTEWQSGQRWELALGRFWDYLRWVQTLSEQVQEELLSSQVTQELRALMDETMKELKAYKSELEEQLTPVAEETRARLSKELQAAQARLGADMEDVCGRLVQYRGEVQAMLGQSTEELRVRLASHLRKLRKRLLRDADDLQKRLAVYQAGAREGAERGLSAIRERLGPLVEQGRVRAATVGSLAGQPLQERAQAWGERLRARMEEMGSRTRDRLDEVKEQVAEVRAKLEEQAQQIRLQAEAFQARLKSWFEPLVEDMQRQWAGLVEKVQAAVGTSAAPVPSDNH
UniProt Q60932: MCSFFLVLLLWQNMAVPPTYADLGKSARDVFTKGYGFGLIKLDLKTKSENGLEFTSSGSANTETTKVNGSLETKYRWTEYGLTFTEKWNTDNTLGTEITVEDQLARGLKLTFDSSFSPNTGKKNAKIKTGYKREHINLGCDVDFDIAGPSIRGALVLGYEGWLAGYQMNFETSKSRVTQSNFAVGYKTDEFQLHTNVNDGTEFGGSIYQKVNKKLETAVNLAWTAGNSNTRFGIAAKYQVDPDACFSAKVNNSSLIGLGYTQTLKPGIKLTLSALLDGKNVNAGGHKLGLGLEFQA
UniProt P07724, residues 25-608: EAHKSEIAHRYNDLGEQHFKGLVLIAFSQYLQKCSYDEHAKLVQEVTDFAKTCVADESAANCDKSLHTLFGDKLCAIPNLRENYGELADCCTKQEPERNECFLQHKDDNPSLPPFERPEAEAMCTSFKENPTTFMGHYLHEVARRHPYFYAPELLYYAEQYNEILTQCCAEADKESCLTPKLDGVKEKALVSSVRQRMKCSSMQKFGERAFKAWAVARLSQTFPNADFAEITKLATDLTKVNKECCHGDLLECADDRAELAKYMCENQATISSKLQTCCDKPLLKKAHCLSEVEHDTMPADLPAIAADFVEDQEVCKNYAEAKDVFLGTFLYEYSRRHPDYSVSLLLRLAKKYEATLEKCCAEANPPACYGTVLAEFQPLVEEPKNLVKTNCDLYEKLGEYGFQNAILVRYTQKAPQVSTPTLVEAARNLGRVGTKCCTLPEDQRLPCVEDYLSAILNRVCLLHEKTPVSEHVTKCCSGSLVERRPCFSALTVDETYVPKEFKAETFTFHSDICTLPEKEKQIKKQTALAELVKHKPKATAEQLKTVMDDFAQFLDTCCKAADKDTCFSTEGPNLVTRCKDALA

What was measured:
[1] = biological target: human apolipoprotein E3 (APOE3) in APOE3 targeted replacement mouse liver (human) (UniProt P02649); assay: affinity purification with mass spectrometry; APOE co-IP from liver tissue lysates (NP40 lysis buffer) of two female APOE TR mice (1 x APOE3, 1 x APOE4) with two anti-APOE antibodies (sc-13521, sc-390925), Protein G Sepharose, 4 °C; four co-IPs analysed by LC-MS; control without antibody
[2] = biological target: human apolipoprotein E3 (APOE3) in APOE3 targeted replacement mouse liver (human) (UniProt P02649); assay: as above; remark: listed apart in the source

binding [1]: binds
Molecule: voltage-dependent anion-selective channel 1 (VDAC1), mouse liver (from UniProt Q60932)

binding [2]: binds
B2: leucine-rich repeat-containing protein 59, mouse liver (protein, UniProt Q922Q8 1-307)
chain: MTKAGSKGGNLRDKLDGNELDLSLSDLNEVPVKELAALPKATVLDLSCNKLSTLPSDFCGLTHLVKLDLSKNKLQQLPADFGRLVNLQHLDLLNNRLVTLPVSFAQLKNLKWLDLKDNPLDPVLAKVAGDCLDEKQCKQCANKVLQHMKAVQADQERERQRRLEVEREAEKKREAKQQAKEAKERELRKREKAEEKERRRKEYDAQKASKREQEKKPKKEANQAPKSKSGSRPRKPPPRKHTRSWAVLKVLLLLLLLCVAGGLVVCRVTGLHQQPLCTSVNTIYDNAVQGLRHHEILQWVLQTDSQQ

The remaining lines, values behind:

Molecule: serum albumin, mouse liver (from UniProt P07724 25-608)
binding [1]: binds

B1: branched-chain alpha-keto acid dehydrogenase subunit beta, mouse liver (protein, UniProt Q6P3A8 49-390)
chain: VAHFTFHPDPESLQYGQTQKMNLFQSITSALDNSLAKDPTAVIFGEDVAFGGVFRCTVGLRDKYGKDRVFNTPLCEQGIVGFGIGIAVTGATAIAEIQFADYIFPAFDQIVNEAAKYRYRSGDLFNCGSLTIRAPWGCVGHGALYHSQSPEAFFAHCPGIKVVIPRSPFQAKGLLLSCIEDKNPCIFFEPKILYRAAVEQVPVEPYKIPLSQAEVIQEGSDVTLVAWGTQVHVIREVASMAQEKLGVSCEVIDLRTIVPWDVDTVCKSVIKTGRLLISHEAPLTGGFASEISSTVQEECFLNLEAPISRVCGYDTPFPHIFEPFYIPDKWKCYDALRKMINY
binding [2]: binds

B3: branched-chain alpha-keto acid dehydrogenase (BCKD) complex subunit alpha (BCKDHA), mouse liver (protein, UniProt P50136 43-442)
chain: PSLDDKPQFPGASAEFVDKLEFIQPNVISGIPIYRVMDRQGQIINPSEDPHLPQEEVLKFYRSMTLLNTMDRILYESQREGRISFYMTNYGEEGTHVGSAAALERTDLVFGQYREAGVLMYRDYPLELFMSQCYGNVNDPGKGRQMPVHYGCKERHFVTISSPLATQIPQAVGAAYAAKRANANRIVICYFGEGAASEGDAHAGFNFAATLECPIIFFCRNNGYAISTPTSEQYRGDGIAARGPGYGIKSIRVDGNDVFAVYNATKEARRRAVAENQPFLIEAMTYRIGHHSTSDDSSAYRSVDEVNYWDKQDHPISRLRQYLLNQGWWDEEQEKAWRKQSRKKVMEAFEQAERKLKPNPSLLFSDVYQEMPAQLRRQQESLARHLQTYGEHYPLDHFEK
binding [2]: binds
